Measurements reported in patent US20190085081A1.
These are yes or no findings as the source states them, for the method shown. In cells and extracts the contact can be indirect. Some binding calls cover weakened binding; strength is not graded here.

Chains of the proteins cited; added tags and fusions are not shown. Lines headed by an entry give the natural chain unless they say otherwise; changes in a name come on top.
UniProt Q86T13: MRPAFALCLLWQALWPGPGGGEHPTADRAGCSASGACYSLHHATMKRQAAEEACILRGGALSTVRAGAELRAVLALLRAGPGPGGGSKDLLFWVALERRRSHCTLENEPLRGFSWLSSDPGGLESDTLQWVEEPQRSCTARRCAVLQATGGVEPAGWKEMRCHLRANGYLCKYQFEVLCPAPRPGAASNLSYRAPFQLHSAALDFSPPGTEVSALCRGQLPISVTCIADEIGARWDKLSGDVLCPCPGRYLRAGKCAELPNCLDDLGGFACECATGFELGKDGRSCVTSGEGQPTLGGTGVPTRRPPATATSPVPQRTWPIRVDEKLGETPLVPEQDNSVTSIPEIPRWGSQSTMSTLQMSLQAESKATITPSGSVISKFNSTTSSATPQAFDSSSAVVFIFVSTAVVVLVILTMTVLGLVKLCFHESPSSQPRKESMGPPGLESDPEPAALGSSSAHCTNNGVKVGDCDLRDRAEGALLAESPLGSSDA

Assays:
[1] = molecular target: T1, MMRN2 (endogenous, HUVEC lysate) (human) (UniProt Q9H8L6); experiment: co-immunoprecipitation from HUVEC lysate
T1 sequence: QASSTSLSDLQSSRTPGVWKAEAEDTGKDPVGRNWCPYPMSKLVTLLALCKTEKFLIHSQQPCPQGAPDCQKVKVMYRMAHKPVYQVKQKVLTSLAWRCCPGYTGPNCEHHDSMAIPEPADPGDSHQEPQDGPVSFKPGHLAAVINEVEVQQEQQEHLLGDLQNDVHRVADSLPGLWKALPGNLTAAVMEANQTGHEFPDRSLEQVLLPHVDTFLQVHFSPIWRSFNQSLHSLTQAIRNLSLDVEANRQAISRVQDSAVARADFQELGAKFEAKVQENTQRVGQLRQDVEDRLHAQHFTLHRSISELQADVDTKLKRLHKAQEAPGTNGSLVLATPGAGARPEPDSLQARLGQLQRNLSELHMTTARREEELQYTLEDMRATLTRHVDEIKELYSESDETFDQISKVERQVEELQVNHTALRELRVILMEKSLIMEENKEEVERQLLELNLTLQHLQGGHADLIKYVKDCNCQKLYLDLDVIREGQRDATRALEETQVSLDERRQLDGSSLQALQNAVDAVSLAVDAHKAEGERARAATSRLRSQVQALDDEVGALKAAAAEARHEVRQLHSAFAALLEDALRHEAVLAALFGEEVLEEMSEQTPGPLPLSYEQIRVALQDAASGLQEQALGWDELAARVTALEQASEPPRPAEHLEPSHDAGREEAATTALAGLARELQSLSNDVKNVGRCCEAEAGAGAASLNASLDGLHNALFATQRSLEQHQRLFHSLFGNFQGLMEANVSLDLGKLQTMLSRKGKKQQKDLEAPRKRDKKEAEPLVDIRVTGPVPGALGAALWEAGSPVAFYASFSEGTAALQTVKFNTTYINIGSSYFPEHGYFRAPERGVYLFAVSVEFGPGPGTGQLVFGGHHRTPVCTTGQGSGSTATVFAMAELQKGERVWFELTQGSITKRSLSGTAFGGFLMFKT

[2] = molecular target: T1, MMRN2 (endogenous, HUVEC lysate) (human); experiment: co-immunoprecipitation from HUVEC whole cell lysate, Western blot
[3] = molecular target: T1, MMRN2 (endogenous, HUVEC lysate) (human); experiment: co-immunoprecipitation from HUVEC lysate, Western blot (FIG. 8B)

Measured: binding

human CLEC14A, full length (from UniProt Q86T13 22-490) (receptor)
binds: all assays above
